The supplement of paper PMC10735217
Some of the results follow. Single values are uncertain here, since repeats match poorly.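 In a drug-repurposing library screen, luminescence reads luciferase driven by eight TEAD-binding elements, stably integrated into human kidney-derived cells. Compounds scoring over five robust Z scores above the plate mean are called hits.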

Tested on: HEK293A TEAD-LUC reporter
Assay: TEAD-luciferase reporter activity (YAP activation), robust Z score vs plate; higher = stronger YAP/TEAD activation
Conditions: 24 h

SMILES: OC1C[Si](c2ccc(F)cc2)(c2ccc(F)cc2)CC1N1CCN(c2ccccc2)CC1 (stereo unspecified)
- TEAD-luciferase reporter activity (compound concentration: 200 nM): inactive: -0.487
- TEAD-luciferase reporter activity (compound concentration: 10 uM): inactive: 3.16

SMILES: Oc1cccc(c1)/C/1=C/2\CCC(=N2)/C(=c\2/cc/c(=C(/C3=N/C(=C(\c4[nH]c1cc4)/c1cccc(c1)O)/C=C3)\c1cccc(c1)O)/[nH]2)/c1cccc(c1)O [Temoporfin]
- TEAD-luciferase reporter activity (compound concentration: 200 nM): inactive: 0.453
- TEAD-luciferase reporter activity (compound concentration: 2 uM): inactive: -1.48
- TEAD-luciferase reporter activity (compound concentration: 10 uM): inactive: 0.323

SMILES: CC(C)(C)NCC(O)COc1cccc2c1CCN(C=O)C2 (stereo unspecified)
- TEAD-luciferase reporter activity (compound concentration: 200 nM): inactive: 0.716
- TEAD-luciferase reporter activity (compound concentration: 2 uM): inactive: -0.916
- TEAD-luciferase reporter activity (compound concentration: 10 uM): inactive: 1.37

SMILES: CCCn1cnc2c1c(=O)n(CCCCC(C)(C)O)c(=O)n2C
- TEAD-luciferase reporter activity (compound concentration: 200 nM): inactive: -0.794
- TEAD-luciferase reporter activity (compound concentration: 2 uM): inactive: 0.212
- TEAD-luciferase reporter activity (compound concentration: 10 uM): inactive: -0.465

SMILES: CCN1CCN(c2cc(-c3ccccc3)c3ccccc3n2)CC1
- TEAD-luciferase reporter activity (compound concentration: 200 nM): inactive: 2.56
- TEAD-luciferase reporter activity (compound concentration: 2 uM): inactive: 0.312
- TEAD-luciferase reporter activity (compound concentration: 10 uM): inactive: -0.438

SMILES: C[C@H](N)C(=O)N[C@@H](CCC(=O)N[C@@H](CC(=O)NCC(=O)O)C(=O)O)C(=O)O [Epithalon]
- TEAD-luciferase reporter activity (compound concentration: 200 nM): inactive: 3.21
- TEAD-luciferase reporter activity (compound concentration: 2 uM): inactive: 0.535
- TEAD-luciferase reporter activity (compound concentration: 10 uM): inactive: -0.621

SMILES: CON=C(C(=O)N[C@@H]1C(=O)N2C(C(=O)O)=C(COC(N)=O)CS[C@H]12)c1ccco1 [Cefuroxime]
- TEAD-luciferase reporter activity (compound concentration: 200 nM): inactive: -0.387
- TEAD-luciferase reporter activity (compound concentration: 10 uM): inactive: -0.926

SMILES: CON=C(C(=O)N[C@@H]1C(=O)N2C(C(=O)O)=C(COC(N)=O)CS[C@H]12)c1ccco1 [_:_2016-03-02: cefuroxime, MiddleBrook]
- TEAD-luciferase reporter activity (compound concentration: 2 uM): inactive: -1.04

SMILES: Cc1cc2ncc(C(=O)N3CCN(C)CC3)cn2n1
- TEAD-luciferase reporter activity (compound concentration: 200 nM): inactive: -0.747
- TEAD-luciferase reporter activity (compound concentration: 10 uM): inactive: 0.551

SMILES: COc1cc(C(=O)N[C@@H](CC(=O)O)c2ccccc2C)nn1-c1ccccc1F
- TEAD-luciferase reporter activity (compound concentration: 200 nM): inactive: 0.931
- TEAD-luciferase reporter activity (compound concentration: 2 uM): inactive: 0.629
- TEAD-luciferase reporter activity (compound concentration: 10 uM): inactive: -1.55

SMILES: CC(=O)N1CCCC1C(=O)N1CCC(c2ccccc2)CC1 (stereo unspecified)
- TEAD-luciferase reporter activity (compound concentration: 200 nM): inactive: -0.412
- TEAD-luciferase reporter activity (compound concentration: 10 uM): inactive: 4.86

SMILES: CCOc1ccc(C[C@H]2NC(=O)CCSSC[C@@H](C(=O)N3CCC[C@H]3C(=O)N[C@@H](CCCN)C(=O)NCC(N)=O)NC(=O)[C@H](CC(N)=O)NC(=O)[C@H]([C@@H](C)O)NC(=O)[C@H]([C@@H](C)CC)NC2=O)cc1 [antocin II]
- TEAD-luciferase reporter activity (compound concentration: 200 nM): inactive: -0.679
- TEAD-luciferase reporter activity (compound concentration: 2 uM): inactive: -0.949
- TEAD-luciferase reporter activity (compound concentration: 10 uM): inactive: 3.12

SMILES: C/C(=C(\CCO)SSCC1CCCO1)N(C=O)Cc1cnc(C)nc1N (stereo unspecified) [Fursultiamine]
- TEAD-luciferase reporter activity (compound concentration: 200 nM): inactive: 0.346
- TEAD-luciferase reporter activity (compound concentration: 2 uM): inactive: -0.747
- TEAD-luciferase reporter activity (compound concentration: 10 uM): inactive: 3.81

SMILES: CCCc1nc(NCCO)nc(N2CCOCC2)n1
- TEAD-luciferase reporter activity (compound concentration: 200 nM): active: 5.83
- TEAD-luciferase reporter activity (compound concentration: 2 uM): inactive: 0.613
- TEAD-luciferase reporter activity (compound concentration: 10 uM): inactive: -0.778

SMILES: CC(C)CCCC(NS(=O)(=O)c1ccc(Cl)cc1)c1ccc(CCCC(=O)O)cc1 (stereo unspecified)
- TEAD-luciferase reporter activity (compound concentration: 200 nM): inactive: -1.96
- TEAD-luciferase reporter activity (compound concentration: 2 uM): inactive: -1.02
- TEAD-luciferase reporter activity (compound concentration: 10 uM): inactive: 1.12

SMILES: CC(CS)C(=O)N1CCCC1C(=O)O (stereo unspecified) [captopril slow release]
- TEAD-luciferase reporter activity (compound concentration: 200 nM): inactive: -0.868
- TEAD-luciferase reporter activity (compound concentration: 2 uM): inactive: -1.64
- TEAD-luciferase reporter activity (compound concentration: 10 uM): inactive: 1.74

SMILES: CC(=O)OCCc1ccc(OC[C@@H](O)CNC(C)(C)C)cc1
- TEAD-luciferase reporter activity (compound concentration: 200 nM): inactive: 0.544
- TEAD-luciferase reporter activity (compound concentration: 2 uM): inactive: -0.341
- TEAD-luciferase reporter activity (compound concentration: 10 uM): inactive: -1.2

SMILES: CCN(CC)CCC1(c2ccccc2)C(=O)Oc2ccccc21 (stereo unspecified)
- TEAD-luciferase reporter activity (compound concentration: 200 nM): inactive: -0.563
- TEAD-luciferase reporter activity (compound concentration: 2 uM): inactive: -1.04
- TEAD-luciferase reporter activity (compound concentration: 10 uM): inactive: 0.188

SMILES: CC(C)(CO)CCCCOCCCCC(C)(C)CO
- TEAD-luciferase reporter activity (compound concentration: 200 nM): inactive: -0.796
- TEAD-luciferase reporter activity (compound concentration: 2 uM): inactive: 2.38
- TEAD-luciferase reporter activity (compound concentration: 10 uM): inactive: 3.68

SMILES: CC(C)(C)NCC(O)c1cc(Br)no1 (stereo unspecified) [Broxaterol]
- TEAD-luciferase reporter activity (compound concentration: 200 nM): inactive: -2.02
- TEAD-luciferase reporter activity (compound concentration: 2 uM): inactive: -0.909
- TEAD-luciferase reporter activity (compound concentration: 10 uM): inactive: -1.58

SMILES: N#Cc1cccc(NS(=O)(=O)c2ccc(-c3cccc(N)c3)cc2)c1
- TEAD-luciferase reporter activity (compound concentration: 200 nM): inactive: -0.331
- TEAD-luciferase reporter activity (compound concentration: 2 uM): inactive: 0.0175
- TEAD-luciferase reporter activity (compound concentration: 10 uM): inactive: 0.653

SMILES: CCOC(=O)/N=C(\N)c1ccc(OCc2cccc(COc3ccc(C(C)(C)c4ccc(O)cc4)cc3)c2)cc1
- TEAD-luciferase reporter activity (compound concentration: 200 nM): inactive: -1
- TEAD-luciferase reporter activity (compound concentration: 2 uM): inactive: -1.8
- TEAD-luciferase reporter activity (compound concentration: 10 uM): inactive: 0.104

SMILES: Cc1ccc(CN2CCCCC23Cc2ccccc2CNC3=O)cc1C (stereo unspecified)
- TEAD-luciferase reporter activity (compound concentration: 200 nM): inactive: 0.541
- TEAD-luciferase reporter activity (compound concentration: 10 uM): active: 7.93

SMILES: CCCCOCCOCCOCc1cc2c(cc1CCC)OCO2 [Piperonylbutoxide]
- TEAD-luciferase reporter activity (compound concentration: 200 nM): inactive: -1.18
- TEAD-luciferase reporter activity (compound concentration: 10 uM): inactive: 0.705

SMILES: CCCCOCCOCCOCc1cc2c(cc1CCC)OCO2
- TEAD-luciferase reporter activity (compound concentration: 2 uM): inactive: -0.733

SMILES: COc1cc(CCc2cc(NC(=O)c3ccc(N4C[C@@H](C)N[C@@H](C)C4)cc3)n[nH]2)cc(OC)c1
- TEAD-luciferase reporter activity (compound concentration: 200 nM): inactive: -1.74
- TEAD-luciferase reporter activity (compound concentration: 2 uM): inactive: 1.92
- TEAD-luciferase reporter activity (compound concentration: 10 uM): inactive: -0.0385

SMILES: NCCCC[C@H](OP(=O)(O)CCCCc1ccccc1)C(=O)N1CCC[C@H]1C(=O)O [Ceronapril]
- TEAD-luciferase reporter activity (compound concentration: 200 nM): inactive: 0.864
- TEAD-luciferase reporter activity (compound concentration: 2 uM): inactive: -0.107
- TEAD-luciferase reporter activity (compound concentration: 10 uM): inactive: -0.294

SMILES: O=C(Cc1ccc(F)cc1)N1CCC(C(=O)N2CCC(N3Cc4ccccc4C3=O)CC2)CC1
- TEAD-luciferase reporter activity (compound concentration: 200 nM): inactive: 0.949
- TEAD-luciferase reporter activity (compound concentration: 10 uM): inactive: 0.41

SMILES: CN1C[C@H]2CCN(c3ccc(-c4ccc(-n5ncccc5=O)cc4)cc3)[C@H]2C1
- TEAD-luciferase reporter activity (compound concentration: 200 nM): inactive: -1.41
- TEAD-luciferase reporter activity (compound concentration: 2 uM): inactive: 0.398
- TEAD-luciferase reporter activity (compound concentration: 10 uM): inactive: 1.43

SMILES: CCOC(=O)c1ccccc1Cc1ccc(C)c(Nc2cc(S(=O)(=O)O)c(N)c3c2C(=O)c2ccccc2C3=O)c1
- TEAD-luciferase reporter activity (compound concentration: 200 nM): inactive: -1.23
- TEAD-luciferase reporter activity (compound concentration: 2 uM): inactive: -0.547
- TEAD-luciferase reporter activity (compound concentration: 10 uM): inactive: 0.183

SMILES: COc1ccccc1N1CCN(S(=O)(=O)c2ccc(C)cc2)CC1
- TEAD-luciferase reporter activity (compound concentration: 200 nM): inactive: -0.317
- TEAD-luciferase reporter activity (compound concentration: 2 uM): inactive: 0.681
- TEAD-luciferase reporter activity (compound concentration: 10 uM): inactive: 1.23

SMILES: O=C(O)c1cc(F)c2nc(N3[C@@H]4CC[C@H]3C[C@@H](OCc3c(-c5ccccc5OC(F)(F)F)noc3C3CC3)C4)sc2c1
- TEAD-luciferase reporter activity (compound concentration: 200 nM): inactive: -0.415
- TEAD-luciferase reporter activity (compound concentration: 2 uM): inactive: -1.08
- TEAD-luciferase reporter activity (compound concentration: 10 uM): inactive: 3.05

SMILES: CCCCCCCCCCCCCCCC(=O)NCCO [N-palmitoylethanolamide]
- TEAD-luciferase reporter activity (compound concentration: 2 uM): inactive: 0.427

SMILES: CCCCCCCCCCCCCCCC(=O)NCCO [N-palmitoylethanolamide, Stief]
- TEAD-luciferase reporter activity (compound concentration: 200 nM): inactive: 2.7
- TEAD-luciferase reporter activity (compound concentration: 10 uM): inactive: 2.92

SMILES: CCCCc1nn(-c2cc(NC(=O)CC)ccc2C(F)(F)F)c(=O)n1Cc1ccc(-c2ccccc2S(=O)(=O)NC(=O)OC(C)(C)C)cc1
- TEAD-luciferase reporter activity (compound concentration: 200 nM): inactive: -0.802
- TEAD-luciferase reporter activity (compound concentration: 2 uM): inactive: -1.51
- TEAD-luciferase reporter activity (compound concentration: 10 uM): inactive: -0.944
